Measured values published in PubChem BioAssay AID720618 (Broad Institute, 2013).
This list was built around the results that the source calls inconclusive (neither active nor inactive); the mix of calls is not that of the screen. Activity calls are given as the source filed them. The rule behind the calls is not given here.

Experiment: caspase-3/7 apoptosis induction in HeLa, late-stage follow-up, mechanism study for HRAS target identification, cell-based, caspase 3/7 luminescence, several timepoints, dry powder (AID 720618)
Conditions: caspase-3/7 apoptosis luminescence, multiple timepoints; at 35 µM (top of the series)

Structure (SMILES)	caspase 3/7 activation
Cc1onc(C(=O)N2CCN(C(c3ccc(Cl)cc3)c3ccc(OCCOCCOCCNC(=O)OC(C)(C)C)cc3)CC2)c1[N+](=O)[O-] (stereo not drawn)	inactive: 3.92%
CO[C@H]1C[C@@H]2CC[C@@H](C)[C@@](O)(O2)C(=O)C(=O)N2CCCC[C@H]2C(=O)O[C@H]([C@H](C)C[C@@H]2CC[C@@H](O)[C@H](OC)C2)CC(=O)[C@H](C)/C=C(\C)[C@@H](O)[C@@H](OC)C(=O)[C@H](C)C[C@H](C)/C=C/C=C/C=C/1C	inconclusive: 58.8%
Cc1onc(C(=O)N2CCN(C(c3ccc(Cl)cc3)c3ccc(Cl)cc3)CC2)c1[N+](=O)[O-]	inconclusive: 18.8%
